Drawing on publication PMC6933324, this text covers binding for 1 substance.

Results are given in words; binding and its absence hold for the method and conditions named. Binding seen in cells or lysates may run through a third protein. For part of these data: A result given as binding can be weak or reduced; the word gives no strength.

What all share (assay): co-IP; Flag-tagged FL or mutant BAG3 immunoprecipitated from HEK293 lysate (20 mmol/L Tris-HCl, 150 mmol/L NaCl, 2 mmol/L EDTA, 1% Triton-X100; protein A/G magnetic beads, overnight at 4°C); blot for p53
In assay [1] the target is Flag-tagged mutant BAG3 without BAG domain (human) (UniProt O95817).
For assay [2], the target named is Flag-tagged mutant BAG3 without PxxP domain (human) (UniProt O95817).
Assay [3] concerns the target Flag-tagged mutant BAG3 without WW domain (human) (UniProt O95817).

Turning to “Myc-tagged full-length (FL) p53 (from UniProt P04637 1-393)”, the binding entry in assay [1] is recorded as “no binding”; in assay [2], “binds”; in assay [3], “binds”.
